Data as given in PubChem BioAssay AID1224828 (NIAID, 2016)
Screen: 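Knock-downs that increase or decrease LPS-induced p65 nuclear translocation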 (primary screen). Cell system: mouse RAW264.7 G9 macrophage reporter cells (GFP-p65, Tnf promoter-mCherry). Reagents: siRNA pool against mouse genes, 100 nM. Time to read-out: 2 days siRNA transfection, then 40 min LPS before fixation. Challenge: LPS (Salmonella minnesota R595) at 10 ng/ml. Measurement: 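Imaged p65 nuclear translocation ratio, normalised to the plate median, converted to robust z-scores and averaged across two replicates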. Reading the numbers: p65 translocation robust z-score: higher = more nuclear NF-kappaB p65 after LPS than the plate median; nuclear/cytoplasmic p65 ratio: higher = more nuclear NF-kappaB p65. Hit rule: 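Active if robust z is above 3.3 (negative regulators) or below -1.56, the Tlr4 control median (positive regulators); activity score 50 or more; control wells not called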. Calls: active = hit (p65 shift raised or lowered); inactive = no clear change.
This is an unselected part of about 17,000 reagents tested. 762 of all reagents (4.5%) were called active. 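Active calls include both raised and lowered p65 entry, mostly lowered; wells with fewer than 50 cells lack a z-score.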 Raw values are not corrected between plates. Unmarked entries are inactive.

no.	gene	PubChem SID	p65 translocation robust z-score	nuclear/cytoplasmic p65 ratio, rep 1	nuclear/cytoplasmic p65 ratio, rep 2	low cell count flag
1	Numb	SID315468271	1.11	1.66	1.5	enough cells to score
2	Pcm1	SID315468408	1.34	1.59	1.62	enough cells to score
3	Angptl4	SID315471838	-0.65	1.56	1.49	enough cells to score
4	P2rx6	SID315468369	0.35	1.5	1.46	enough cells to score
5	Npnt	SID315477003	2.2	1.99	1.91	enough cells to score
6	Ccdc158	SID315481370	-0.67	1.21	1.2	enough cells to score
7	Nap1l4	SID315468099	1.29	1.94	1.83	enough cells to score
8	Osbpl5	SID315475664	0.76	1.56	1.32	enough cells to score
9	Nherf4	SID315477228	-0.58	1.32	1.22	enough cells to score
10	Or5d46	SID315480415	2.59	2.01	2	enough cells to score
11	Pnpt1	SID315474280	0.91	1.37	1.32	enough cells to score
12	Tmem91	SID315481260	-0.71	1.31	1.41	enough cells to score
13	Pilrb1	SID315477212		1.43	1.11	fewer than 50 cells per well; well left out of scoring
14	Smap1	SID315476129	-0.86	1.26	1.13	enough cells to score
15	Bora	SID315475505	0.52	1.44	1.62	enough cells to score
16	Isy1	SID315471842		1.44	1.05	fewer than 50 cells per well; well left out of scoring
17	Recql4	SID315475677	-0.57	1.45	1.67	enough cells to score
18	Zfp189	SID315478768	-0.01	1.33	1.25	enough cells to score
19	Agrn	SID315465348	-0.85	1.44	1.59	enough cells to score
20	Rcor1	SID315478160	-0.34	1.5	1.75	enough cells to score

Next part, starting with the last 8 of the part before.
no.	gene	PubChem SID	p65 translocation robust z-score	nuclear/cytoplasmic p65 ratio, rep 1	nuclear/cytoplasmic p65 ratio, rep 2	low cell count flag
13	Pilrb1	SID315477212		1.43	1.11	fewer than 50 cells per well; well left out of scoring
14	Smap1	SID315476129	-0.86	1.26	1.13	enough cells to score
15	Bora	SID315475505	0.52	1.44	1.62	enough cells to score
16	Isy1	SID315471842		1.44	1.05	fewer than 50 cells per well; well left out of scoring
17	Recql4	SID315475677	-0.57	1.45	1.67	enough cells to score
18	Zfp189	SID315478768	-0.01	1.33	1.25	enough cells to score
19	Agrn	SID315465348	-0.85	1.44	1.59	enough cells to score
20	Rcor1	SID315478160	-0.34	1.5	1.75	enough cells to score
21	Echs1	SID315475966	-0.23	1.46	1.32	enough cells to score
22	Cops5	SID315470449	0.72	1.49	1.55	enough cells to score
23	Ptprj	SID315468814	-0.3	1.69	1.3	enough cells to score
24	Fam187a	SID315472637		1.39	1.34	fewer than 50 cells per well; well left out of scoring
25	Ubl4b	SID315473115		1.42	1.37	fewer than 50 cells per well; well left out of scoring
26	Vamp2	SID315469978		1.26	1.08	fewer than 50 cells per well; well left out of scoring
27	Cyp4f15	SID315476556	0.26	1.62	1.82	enough cells to score
28	Luc7l2	SID315477401	0.16	1.74	1.57	enough cells to score
29	Foxa3	SID315467239	0.96	1.51	1.55	enough cells to score
30	Itga4	SID315467506	-1.48	1.17	1.29	enough cells to score
31	Slc25a1	SID315466320	0.35	1.64	1.49	enough cells to score
32	Arrb2	SID315478049		1.35	1.57	fewer than 50 cells per well; well left out of scoring
33	Adamdec1	SID315471920	-0.35	1.53	1.6	enough cells to score
34	Prdx3	SID315465428	1.04	1.66	1.53	enough cells to score
35	Scd2	SID315469107	-1.22	1.22	1.08	enough cells to score
36	Hepacam	SID315474646	1.05	1.37	1.38	enough cells to score
37	Mutyh	SID315474094	0.03	1.42	1.38	enough cells to score
38	Aldh1a7	SID315470344	0.5	1.53	1.92	enough cells to score
39	Emp3	SID315466495	0.62	1.59	1.56	enough cells to score
40	Bap1	SID315476441	-0.59	1.53	1.52	enough cells to score
41	Cers5	SID315474388	-1.01	1.37	1.33	enough cells to score
42	Osgin1	SID315474346		1.69	1.31	fewer than 50 cells per well; well left out of scoring
43	Arpc1a	SID315471539	-1.31	1.45	1.39	enough cells to score
44	Ap2b1	SID315474314	-0.88	1.5	1.48	enough cells to score
45	Lpar4	SID315475541	0.31	1.51	1.67	enough cells to score
46	Tdp1	SID315476465	-0.04	1.49	1.72	enough cells to score
47	Flnc	SID315473634	-0.74	1.47	1.53	enough cells to score
48	Klk1b7-ps	SID315475428		1.5	1.5	fewer than 50 cells per well; well left out of scoring
49	Ear4	SID315471120		1.28	1.04	fewer than 50 cells per well; well left out of scoring
50	A930104D05Rik	SID315481349	-0.26	1.45	1.38	enough cells to score
51	Sox5	SID315469390	1.29	1.53	1.43	enough cells to score
52	Hdac6	SID315467168	-0.24	1.33	1.41	enough cells to score
53	Impa2	SID315477030	-0.34	1.43	1.33	enough cells to score
54	Pth1r	SID315468784	1.06	1.59	1.81	enough cells to score
55	B3gnt2	SID315471101	-0.97	1.39	1.54	enough cells to score
56	Ctbp1	SID315466185	-1.09	1.39	1.19	enough cells to score
57	Acyp1	SID315472288	-0.67	1.56	1.48	enough cells to score
58	Lhfpl4	SID315480887	-1.24	1.34	1.41	enough cells to score
59	Tmem51	SID315477858	-2.82 (active)	1.24	1.37	enough cells to score
